# Some of the results follow.
# Columns and labels:
# Test in all cases: glycan array binding signal (z-score within array); higher = stronger binding
# Conditions in all cases: glycan notation: IUPAC condensed, linker removed
# Neu5Ac(a2-3)GalNAc = target: Neu5Ac(a2-3)GalNAc
# In short: (§1)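 Columns mapping to the same glycan were averaged after glycan names were converted to IUPAC-condensed notation. The data come from 3228 arrays in the Consortium for Functional Glycomics database, limited to those with an available protein sequence. Binding is reported as a within-array Z-score averaged across arrays of one protein sequence and across linkers.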
# [1] = target: Neu5Ac(a2-3)GalNAc(b1-4)GlcNAc
# In short: as §1
# [2] = target: Neu5Ac(a2-3)[GalNAc(b1-4)]Gal(b1-4)Glc
# In short: as §1
# [3] = target: Neu5Ac(a2-3)[GalNAc(b1-4)]Gal(b1-4)GlcNAc
# In short: as §1
# [4] = target: Neu5Ac(a2-3)[GalNAc(b1-4)]Gal(b1-4)GlcNAc(b1-3)GalNAc
# In short: as §1
# [5] = target: Neu5Ac(a2-3)[Neu5Ac(a2-6)]GalNAc
# In short: as §1
# Neu5Ac(a2-6)Gal = target: Neu5Ac(a2-6)Gal
# In short: as §1
# [6] = target: Neu5Ac(a2-6)Gal(b1-3)GlcNAc(b1-3)[Gal(b1-4)GlcNAc(b1-6)]Gal(b1-4)Glc
# In short: as §1
# Neu5Ac(a2-6)Gal(b1-4)Glc = target: Neu5Ac(a2-6)Gal(b1-4)Glc
# In short: as §1
# [7] = target: Neu5Ac(a2-6)Gal(b1-4)GlcNAc
# In short: as §1
# [8] = target: Neu5Ac(a2-6)Gal(b1-4)GlcNAc(b1-2)Man
# In short: as §1
# [9] = target: Neu5Ac(a2-6)Gal(b1-4)GlcNAc(b1-2)Man(a1-3)Man(b1-4)GlcNAc(b1-4)GlcNAc
# In short: as §1
# [10] = target: Neu5Ac(a2-6)Gal(b1-4)GlcNAc(b1-2)Man(a1-3)[Gal(b1-4)GlcNAc(b1-2)Man(a1-6)]Man(b1-4)GlcNAc(b1-4)GlcNAc
# In short: as §1
# [11] = target: Neu5Ac(a2-6)Gal(b1-4)GlcNAc(b1-2)Man(a1-3)[GlcNAc(b1-2)Man(a1-6)]Man(b1-4)GlcNAc(b1-4)GlcNAc
# In short: as §1
# [12] = target: Neu5Ac(a2-6)Gal(b1-4)GlcNAc(b1-2)Man(a1-3)[GlcNAc(b1-4)][Neu5Ac(a2-6)Gal(b1-4)GlcNAc(b1-2)Man(a1-6)]Man(b1-4)GlcNAc(b1-4)GlcNAc
# In short: as §1
# [13] = target: Neu5Ac(a2-6)Gal(b1-4)GlcNAc(b1-2)Man(a1-3)[Man(a1-6)]Man(b1-4)GlcNAc(b1-4)GlcNAc
# In short: as §1
# [14] = target: Neu5Ac(a2-6)Gal(b1-4)GlcNAc(b1-2)Man(a1-3)[Neu5Ac(a2-3)Gal(b1-4)GlcNAc(b1-2)Man(a1-6)]Man(b1-4)GlcNAc(b1-4)GlcNAc
# In short: as §1
# [15] = target: Neu5Ac(a2-6)Gal(b1-4)GlcNAc(b1-2)Man(a1-3)[Neu5Ac(a2-6)Gal(b1-4)GlcNAc(b1-2)Man(a1-6)]Man(b1-4)GlcNAc(b1-4)GlcNAc
# In short: as §1
# [16] = target: Neu5Ac(a2-6)Gal(b1-4)GlcNAc(b1-2)Man(a1-3)[Neu5Ac(a2-6)Gal(b1-4)GlcNAc(b1-2)Man(a1-6)]Man(b1-4)GlcNAc(b1-4)[Fuc(a1-6)]GlcNAc
# In short: as §1
# [17] = target: Neu5Ac(a2-6)Gal(b1-4)GlcNAc(b1-2)Man(a1-6)Man(b1-4)GlcNAc(b1-4)GlcNAc
# In short: as §1
# [18] = target: Neu5Ac(a2-6)Gal(b1-4)GlcNAc(b1-2)Man(a1-6)[Gal(b1-4)GlcNAc(b1-2)Man(a1-3)]Man(b1-4)GlcNAc(b1-4)GlcNAc
# In short: as §1
# [19] = target: Neu5Ac(a2-6)Gal(b1-4)GlcNAc(b1-2)Man(a1-6)[GlcNAc(b1-2)Man(a1-3)]Man(b1-4)GlcNAc(b1-4)GlcNAc
# In short: as §1
# [20] = target: Neu5Ac(a2-6)Gal(b1-4)GlcNAc(b1-2)Man(a1-6)[Man(a1-3)]Man(b1-4)GlcNAc(b1-4)GlcNAc
# In short: as §1
# [21] = target: Neu5Ac(a2-6)Gal(b1-4)GlcNAc(b1-2)[Neu5Ac(a2-6)Gal(b1-4)GlcNAc(b1-4)]Man(a1-3)[GlcNAc(b1-4)][Neu5Ac(a2-6)Gal(b1-4)GlcNAc(b1-2)[Neu5Ac(a2-6)Gal(b1-4)GlcNAc(b1-6)]Man(a1-6)]Man(b1-4)GlcNAc(b1-4)GlcNAc
# In short: as §1
# [22] = target: Neu5Ac(a2-6)Gal(b1-4)GlcNAc(b1-2)[Neu5Ac(a2-6)Gal(b1-4)GlcNAc(b1-4)]Man(a1-3)[GlcNAc(b1-4)][Neu5Ac(a2-6)Gal(b1-4)GlcNAc(b1-4)Man(a1-6)]Man(b1-4)GlcNAc(b1-4)GlcNAc
# In short: as §1
# [23] = target: Neu5Ac(a2-6)Gal(b1-4)GlcNAc(b1-2)[Neu5Ac(a2-6)Gal(b1-4)GlcNAc(b1-6)]Man(a1-6)[Neu5Ac(a2-6)Gal(b1-4)GlcNAc(b1-2)Man(a1-3)][GlcNAc(b1-4)]Man(b1-4)GlcNAc(b1-4)GlcNAc
# In short: as §1
# [24] = target: Neu5Ac(a2-6)Gal(b1-4)GlcNAc(b1-3)Gal(b1-3)GlcNAc
# In short: as §1
# [25] = target: Neu5Ac(a2-6)Gal(b1-4)GlcNAc(b1-3)Gal(b1-4)GlcNAc
# In short: as §1
# [26] = target: Neu5Ac(a2-6)Gal(b1-4)GlcNAc(b1-3)Gal(b1-4)GlcNAc(b1-2)Man(a1-3)[Neu5Ac(a2-6)Gal(b1-4)GlcNAc(b1-3)Gal(b1-4)GlcNAc(b1-2)Man(a1-6)]GalNAc
# In short: as §1
# [27] = target: Neu5Ac(a2-6)Gal(b1-4)GlcNAc(b1-3)Gal(b1-4)GlcNAc(b1-3)Gal(b1-4)GlcNAc
# In short: as §1
# [28] = target: Neu5Ac(a2-6)Gal(b1-4)GlcNAc(b1-3)Gal(b1-4)GlcNAc(b1-3)Gal(b1-4)GlcNAc(b1-2)Man(a1-3)[Neu5Ac(a2-6)Gal(b1-4)GlcNAc(b1-3)Gal(b1-4)GlcNAc(b1-3)Gal(b1-4)GlcNAc(b1-2)Man(a1-6)]GalNAc
# In short: as §1
# [29] = target: Neu5Ac(a2-6)Gal(b1-4)GlcNAc(b1-3)Gal(b1-4)GlcNAc(b1-3)GalNAc
# In short: as §1
# [30] = target: Neu5Ac(a2-6)Gal(b1-4)GlcNAc(b1-3)Gal(b1-4)GlcNAc(b1-3)[Neu5Ac(a2-6)Gal(b1-4)GlcNAc(b1-3)Gal(b1-4)GlcNAc(b1-6)]GalNAc
# In short: as §1
# [31] = target: Neu5Ac(a2-6)Gal(b1-4)GlcNAc(b1-3)Gal(b1-4)GlcNAc(b1-6)[Gal(b1-3)]GalNAc
# In short: as §1
# [32] = target: Neu5Ac(a2-6)Gal(b1-4)GlcNAc(b1-3)Gal(b1-4)[Fuc(a1-3)]GlcNAc(b1-3)Gal(b1-4)[Fuc(a1-3)]GlcNAc
# In short: as §1
# [33] = target: Neu5Ac(a2-6)Gal(b1-4)GlcNAc(b1-3)GalNAc
# In short: as §1
# [34] = target: Neu5Ac(a2-6)Gal(b1-4)GlcNAc(b1-3)[Neu5Ac(a2-6)Gal(b1-4)GlcNAc(b1-6)]GalNAc
# In short: as §1
binder,measurement,setting,value
EUL D1A (Oryza sativa) (protein) MFGFGHHHNQAPAAPSDPNQIFKIFCRANENYCLTVRDSAVVLAPVNPKDEHQHWFKDMRFSTKVKDGEGMPAFALVNKATGLAVKHSLGQSHPVKLVPFNPEYEDASVLWTESKDVGKGFRCIRMVNNTRLNLDAFHGDKDHGGVRDGTTVVLWEWCKGDNQSWKILPWGPEAHSSSPGAATACTIGGVPVHTVRVFSAAGEDYCLTVRNGTACLAPKNPRDDYQHWIKDMRHSNKIRDEEGYPAFALVNKVTGEAIKHSTGQGHPVKLVPYNPEYQDESVLWTESKDVGKGFRCIRMVNNIYLNFDAFHGDKDHGGIHDGTEIVLWKWCEGDNQRWKILPWILEQKLISEEDLNSAVDHHHHHH,glycan array binding signal (z-score),Neu5Ac(a2-3)GalNAc,-1.28
same,glycan array binding signal (z-score),[1],-0.439
same,glycan array binding signal (z-score),[2],-0.137
same,glycan array binding signal (z-score),[3],-0.358
same,glycan array binding signal (z-score),[4],-0.583
same,glycan array binding signal (z-score),[5],0.339
same,glycan array binding signal (z-score),Neu5Ac(a2-6)Gal,-0.38
same,glycan array binding signal (z-score),[6],1.01
same,glycan array binding signal (z-score),Neu5Ac(a2-6)Gal(b1-4)Glc,0.537
same,glycan array binding signal (z-score),[7],-0.766
same,glycan array binding signal (z-score),[8],0.783
same,glycan array binding signal (z-score),[9],-0.862
same,glycan array binding signal (z-score),[10],0.096
same,glycan array binding signal (z-score),[11],-1.19
same,glycan array binding signal (z-score),[12],-1.57
same,glycan array binding signal (z-score),[13],-0.472
same,glycan array binding signal (z-score),[14],0.227
same,glycan array binding signal (z-score),[15],0.044
same,glycan array binding signal (z-score),[16],1.81
same,glycan array binding signal (z-score),[17],-0.159
same,glycan array binding signal (z-score),[18],-0.206
same,glycan array binding signal (z-score),[19],1.83
same,glycan array binding signal (z-score),[20],0.639
same,glycan array binding signal (z-score),[21],0.097
same,glycan array binding signal (z-score),[22],-0.399
same,glycan array binding signal (z-score),[23],0.046
same,glycan array binding signal (z-score),[24],0.833
same,glycan array binding signal (z-score),[25],-1.05
same,glycan array binding signal (z-score),[26],-0.626
same,glycan array binding signal (z-score),[27],-0.515
same,glycan array binding signal (z-score),[28],0.511
same,glycan array binding signal (z-score),[29],-0.766
same,glycan array binding signal (z-score),[30],1.73
same,glycan array binding signal (z-score),[31],0.16
same,glycan array binding signal (z-score),[32],0.203
same,glycan array binding signal (z-score),[33],-1.29
same,glycan array binding signal (z-score),[34],2.04

# Part of the list above, with tabs:
binder	measurement	setting	value
EUL D1A (Oryza sativa) (protein) MFGFGHHHNQAPAAPSDPNQIFKIFCRANENYCLTVRDSAVVLAPVNPKDEHQHWFKDMRFSTKVKDGEGMPAFALVNKATGLAVKHSLGQSHPVKLVPFNPEYEDASVLWTESKDVGKGFRCIRMVNNTRLNLDAFHGDKDHGGVRDGTTVVLWEWCKGDNQSWKILPWGPEAHSSSPGAATACTIGGVPVHTVRVFSAAGEDYCLTVRNGTACLAPKNPRDDYQHWIKDMRHSNKIRDEEGYPAFALVNKVTGEAIKHSTGQGHPVKLVPYNPEYQDESVLWTESKDVGKGFRCIRMVNNIYLNFDAFHGDKDHGGIHDGTEIVLWKWCEGDNQRWKILPWILEQKLISEEDLNSAVDHHHHHH	glycan array binding signal (z-score)	[12]	-1.57
same	glycan array binding signal (z-score)	[13]	-0.472

# From the supplement of paper PMC8728848
